The other results are listed elsewhere or left out. Repeats are few or missing, and single values can be far off.

In the supplement of paper PMC12873370 one finds cell viability data, which are given here for 31 molecules.

For assay [1], the system named is MEPP (mouse ovarian epithelium Trp53/Pten KO). The assay is described as follows: cell viability relative to untreated (fraction); higher = less growth inhibition. The conditions noted are these: 5 µM; 3 days.
Assay [2] has as its system PREPP (mouse prostate epithelium Trp53/Pten KO). The description is as above. To be noted: 5 µM; 3 days.

`C[C@@H]1O[C@@H](OC[C@H]2O[C@@H](Oc3c(-c4ccc(OCCO)c(OCCO)c4)oc4cc(OCCO)cc(O)c4c3=O)[C@H](O)[C@@H](O)[C@@H]2O)[C@H](O)[C@H](O)[C@H]1O`: the results for the cell viability in assay [1] and in assay [2] were 0.81 and 0.851, respectively.
`OC[C@H]1O[C@H](OCC2O[C@@H](O)[C@H](O)[C@@H](O)[C@@H]2O)[C@H](O)[C@@H](O)[C@H]1O` (some centres not stated): the cell viability is 0.776 in assay [1] and 0.913 in assay [2].
Regarding `CC(=O)NCCc1c[nH]c2ccc(O)cc12`, the cell viability in assay [1] turned out to be 1.06; in assay [2], 0.901.
Regarding `C[C@H](O)[C@H](O)c1cnc2nc(N)[nH]c(=O)c2n1`, the figures for the cell viability in assay [1] and in assay [2] were 1 and 0.866, respectively.
Consider `O=c1[nH]c(=O)c2nc[nH]c2[nH]1`, for which the cell viability was 1.02 in assay [1] and 0.956 in assay [2].
As to `Nc1nc(=O)c2c([nH]1)NCC(CNc1ccc(C(=O)N[C@@H](CCC(=O)O)C(=O)O)cc1)N2C=O` (some centres not stated), the cell viability stood at 1.05 in assay [1] and 0.942 in assay [2].
Take `CCCCCCCCCCCCCCCCCCCC(=O)O`: the cell viability in assay [1] stood at 1.09; in assay [2], 0.722.
With `COc1ccc(CC(=O)O)cc1OC`, the values for the cell viability in assay [1] and in assay [2] were 1.04 and 0.919, respectively.
`CN1CCc2cc3c(cc2C(=O)Cc2cc4c(cc2C1)OCO4)OCO3`: the cell viability in assay [1] is 0.809; in assay [2], 0.836.
Regarding `Nc1nc(=O)c2nc(CNc3ccc(C(=O)N[C@@H](CCC(=O)O)C(=O)O)cc3)cnc2[nH]1`, the cell viability was 0.935 in assay [1] and 0.991 in assay [2].
Consider `O=C1CC[C@H](C(=O)O)N1`, for which the cell viability in assay [1] is 0.953; in assay [2] it was 0.916.
Regarding `O=c1cc(-c2ccccc2)oc2c(O)c(O)ccc12`, the cell viability is 0.993 in assay [1] and 0.967 in assay [2].
`CN(C(=O)c1c(O)c2ccccc2n(C)c1=O)c1ccccc1`: the cell viability stood at 0.735 in assay [1] and 0.87 in assay [2].
For `CC(=O)N(O)CCCCCNC(=O)CCC(=O)N(O)CCCCCNC(=O)CCC(=O)N(O)CCCCCN`, the values for the cell viability in assay [1] and in assay [2] were 0.861 and 0.912, respectively.
The matching figures for `C[C@]12C=CC(=O)C=C1CC[C@@H]1[C@@H]2C(=O)C[C@@]2(C)[C@H]1CC[C@]2(O)C(=O)CO`: 0.826 and 0.877.
The matching figures for `N[C@@H](Cc1c[nH]c2ccccc12)C(=O)O`: 1.14 and 0.954.
The matching figures for `OCc1c[nH]c2ccccc12`: 0.796 and 0.871.
As to `O=C(O)CCc1c[nH]c2ccccc12`, the values for the cell viability in assay [1] and in assay [2] were 1.05 and 0.914, respectively.
For the molecule `C[C@]12C[C@H](O)[C@H]3[C@@H](CCC4=CC(=O)CC[C@@]43C)[C@@H]1CC[C@@H]2C(=O)CO`, the cell viability in assay [1] was 0.986; in assay [2], 0.802.
For `O=C(O)[C@H](O)Cc1ccc(O)c(O)c1`, in that order: 1.27 and 1.19.
For the molecule `CC(C)=CCC/C(C)=C/CC/C(C)=C/CC/C=C(\C)CC/C=C(\C)CCC=C(C)C`, the cell viability in assay [1] was 1.32; in assay [2], 0.936.
Consider `COC(=O)/C=C/C(=O)OC`, for which the results for the cell viability in assay [1] and in assay [2] were 0.984 and 0.833, respectively.
Take `O=C(/C=C/c1ccc(O)cc1)c1ccc(O)cc1O`: the results for the cell viability in assay [1] and in assay [2] were 2.07 and 0.879, respectively.
For the molecule `C=C(C)C1CCC2(C)CCC(=O)C(C)=C2C1` (configuration not stated), the cell viability came out at 1.16 in assay [1] and 1.09 in assay [2].
With `COc1ccc(/C=C\c2cc(OC)c(OC)c(OC)c2)cc1O`, the figures for the cell viability in assay [1] and in assay [2] were 0.476 and 0.685, respectively.
The matching figures for `CN[C@@H]1[C@H](O[C@H]2[C@H](O[C@H]3[C@H](O)[C@@H](O)[C@H](N=C(N)N)[C@@H](O)[C@@H]3N=C(N)N)O[C@@H](C)[C@]2(O)C=O)O[C@@H](CO)[C@H](O)[C@H]1O`: 0.883 and 0.91.
Regarding `O=C(O)/C=C(\CC(=O)O)C(=O)O`, the cell viability was 1.02 in assay [1] and 0.992 in assay [2].
For `Nc1nccs1`, the cell viability was 1.14 in assay [1] and 0.835 in assay [2].
Regarding `Cc1ncc([N+](=O)[O-])n1CC(O)CCl` (configuration not stated), the cell viability in assay [1] came to 1.16; in assay [2], 0.956.
With `Nc1ccn([C@@H]2O[C@H](CO)[C@@H](O)[C@H]2O)c(=O)n1`, the figures for the cell viability in assay [1] and in assay [2] were 1.06 and 0.951, respectively.
`Clc1ccccc1C(c1ccccc1)(c1ccccc1)n1ccnc1`: the cell viability is 1.29 in assay [1] and 0.842 in assay [2].
